Data: PMC11091220, “Metabolism-driven in vitro/in vivo disconnect of an oral ERɑ VHL-PROTAC” (Communications Biology, 2024)

By UniProt entry, the sequences of proteins in these tests, tags left out. Residues count along the entry.
UniProt P03372, whole entry: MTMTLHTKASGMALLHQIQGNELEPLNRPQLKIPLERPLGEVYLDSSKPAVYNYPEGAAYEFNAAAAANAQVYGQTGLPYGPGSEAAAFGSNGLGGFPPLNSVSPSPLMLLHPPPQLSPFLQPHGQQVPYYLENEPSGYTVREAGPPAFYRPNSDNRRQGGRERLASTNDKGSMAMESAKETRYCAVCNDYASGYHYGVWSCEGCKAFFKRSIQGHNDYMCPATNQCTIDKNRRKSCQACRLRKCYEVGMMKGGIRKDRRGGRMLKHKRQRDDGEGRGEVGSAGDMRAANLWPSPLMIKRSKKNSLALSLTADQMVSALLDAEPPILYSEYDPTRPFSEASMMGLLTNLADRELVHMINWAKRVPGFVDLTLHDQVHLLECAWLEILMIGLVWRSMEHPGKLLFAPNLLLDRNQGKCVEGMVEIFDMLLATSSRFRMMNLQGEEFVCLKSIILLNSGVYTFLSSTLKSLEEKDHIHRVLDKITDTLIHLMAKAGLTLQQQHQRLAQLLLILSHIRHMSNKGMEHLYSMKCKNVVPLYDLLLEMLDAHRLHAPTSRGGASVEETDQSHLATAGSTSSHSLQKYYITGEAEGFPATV
UniProt P03372, 311-547 limits assumed: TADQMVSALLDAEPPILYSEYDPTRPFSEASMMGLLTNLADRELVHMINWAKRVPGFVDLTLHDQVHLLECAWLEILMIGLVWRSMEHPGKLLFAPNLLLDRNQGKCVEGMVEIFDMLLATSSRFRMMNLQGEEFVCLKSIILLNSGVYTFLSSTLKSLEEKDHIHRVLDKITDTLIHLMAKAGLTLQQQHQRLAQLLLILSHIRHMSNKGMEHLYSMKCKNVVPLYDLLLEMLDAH

Experiments:
ERα = ERα (Homo sapiens, UniProt P03372); assay: ERα high throughput imaging degradation assay in MCF7 cells; type: cell-based
Protocol: Cells were fixed, permeabilised and stained with anti-ERα (rabbit clone SP1, Thermo) and anti-PR (mouse clone PgR 636, Dako) antibodies followed by secondary AlexaFluor 594 goat anti-rabbit and AlexaFluor 488 goat anti-mouse IgG antibodies. Imaging was using the Thermo Cellinsight scanner and average fluorescence intensity was analysed using Genedata.

[1] = biological target: recombinant human ERα ligand binding domain (LBD) (Homo sapiens, UniProt P03372); assay: ERα binding assay (LanthaScreen TR-FRET competition); conditions: read-out: ERa binding, Mean, Table S4 source data

For `Cc1ncsc1-c1ccc(CNC(=O)[C@@H]2C[C@@H](O)CN2C(=O)[C@@H](NC(=O)COCC2CC2COCCOc2cc(F)c([C@@H]3c4[nH]c5ccccc5c4C[C@@H](C)N3CC(C)(C)F)c(F)c2)C(C)(C)C)cc1` (single isomer, unassigned) [11], the “ERa degradation, Dmax (%)” value (ERα; Table S4 source data) was 96%, the DC50 (ERα; read-out: ERα imaging degradation DC50, MCF7 cells, 20 to 24 hours) was 0.5 nM and the IC50 [1] was 1 nM.

The match of structure and compound is tentative.
